Test results published in PubChem BioAssay AID504444 (National Center for Advancing Translational Sciences (NCATS), 2011).
Values joined by “and” are separate entries in the source; they are usually repeats but may differ in a detail not shown here. Identical values can stand only once. In all, about 360,000 compounds went through this assay and about 7,500 (2.1%) were called active. This list was built around the results that the source calls inconclusive (neither active nor inactive); the mix of calls is not that of the screen. The call rests on the fitted dose curve; in most records, active means well fitted inhibition curve with a large enough effect; inconclusive means small, poorly fitted or top-dose-only effect, or effect the other way; inactive means flat fitted curve, though single readings scatter. A potency beside an inconclusive call is a rough fit, not a confirmed value.

Experiment: Nrf2 qHTS screen for inhibitors; further: nearly all actives have a fitted effect of over 60% in size
Conditions: A549 ARE-Fluc reporter, luciferase luminescence, 18-24 h; activity change, negative = inhibition: at 46 µM (top of the series)
Summary of the method: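 A549 ARE_Fluc cells (5000/well, 5% FBS OPTI-MEM) pre-incubated 2 h, then treated with compounds 18-24 h at 37C/5% CO2 in concentration-response. CellTiter-Fluor viability read first; BugLite luciferase luminescence after 15 min at room temperature gives Nrf2 activity.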
On the % scale 0 is the no-effect control and ±100 the full control effect; potency means the concentration at half of the fitted maximal effect.

| Structure (SMILES) | activity change, negative = inhibition | Potency |
| --- | --- | --- |
| COc1ccc(C(=O)CC2OC(=O)c3ccccc32)cc1OC (stereo not given) | inactive: 4.97% |  |
| CCc1nn(CCCC(=O)NC(C)c2ccccc2)c(=O)c2cc3occc3n12 (stereo not given) |  | inconclusive: 32.6 µM [falling, single point] |
| C#CCSc1nnc(CSc2nc3ccccc3s2)n1-c1ccccc1 |  | inconclusive: 20.6 µM [falling, partial curve, poor fit] |
| CCCCCNC(=O)c1c[nH]c2ccc(S(=O)(=O)N3CCC4(CC3)OCCO4)cc2c1=O | inactive: 4.86% |  |
| C/C=C/C=C\C(=O)Nc1cccc(C2=NOC3(C2)C[C@H](C(N)=O)N(C(=O)CC#N)C3)c1 (stereo not given in full) | inactive: 7.11% |  |
| COc1cccc(C2CC(c3cccs3)=NN2C(=O)CSC2=NCCS2)c1OC (stereo not given) |  | inconclusive: 29.1 µM [falling, single point] |
| COc1cc(SC)ccc1C(=O)N1CC(C)OC(C)C1 (stereo not given) | inactive: 2.81% |  |
| CCC(CC)C(=O)OCC(=O)C1(O)CCC2C3CCC4=CC(=O)CCC4(C)C3C(O)CC21C (stereo not given) |  | active: 0.326 µM |
| O=C(NC(=S)Nc1ccccc1Cl)c1cncc(C#Cc2ccccc2)c1 |  | inconclusive: 29.1 µM [activator, single point] |
| COc1ccc(C(=O)Nc2ccc3nc(C)sc3c2)cc1OC |  | inconclusive: 3.66 µM [activator, full curve, poor fit] |
| COc1ccc(CNC(=O)C(c2ccco2)N(Cc2ccccc2)C(=O)Cc2cccs2)cc1 (stereo not given) |  | inconclusive: 29.1 µM [falling, single point] |
| CC(C)(C)NC(=O)c1oc2ccccc2c1NC(=O)c1ccc(F)cc1 |  | inconclusive: 6.51 µM [falling, partial curve, poor fit] |
| C/C(=N\Nc1ccc(Cl)c(Cl)c1)c1ccc(-n2ccnc2)cc1 |  | inconclusive: 2.59 µM [falling, partial curve, poor fit] |
| Cc1ccc(C(C)C)cc1OCC(=O)NC1CCCCCCC1 |  | inconclusive: 29.1 µM [falling, single point] |
| Cc1ccccc1C(=O)c1cccn1CC(=O)NCc1cccc(Cl)c1 |  | inconclusive: 18.4 µM [activator, partial curve] and inconclusive: 29.1 µM [activator, single point] |
| CCCC(=O)Nc1cc(-c2nn(C)c(=O)c3ccccc23)ccc1OC |  | inconclusive: 2.31 µM [falling, partial curve, poor fit] |
| c1coc(CN2CN=C(Nc3nc4ccccc4s3)NC2)c1 |  | inconclusive: 13 µM [activator, partial curve, poor fit] |
| Cc1ccc2[nH]c(=O)c3cc(C(=O)NCCc4ccc(Cl)cc4)sc3c2c1 |  | inconclusive: 2.31 µM [falling, full curve, poor fit] |
| O=C(NCc1ccc(Cl)cc1)C1CCCN(C(=O)c2ccc(Cl)cc2)C1 (stereo not given) |  | inconclusive: 23.1 µM [falling, partial curve] |
| Fc1ccc(-c2noc(-c3ccc4c(c3)CCO4)n2)cc1 |  | inconclusive: 7.31 µM [activator, single point] |

| Structure (SMILES) | activity change, negative = inhibition | Potency |
| --- | --- | --- |
| O=C1/C(=C/c2c[nH]c3ccccc23)CCC/C1=C\c1c[nH]c2ccccc12 |  | inconclusive: 16.4 µM [falling, single point] |
| CCOc1ccc(NC(=O)c2cccc3c2C(=O)N(CCOC)C3)cc1 |  | inconclusive: 2.06 µM [falling, full curve, poor fit] |
| COc1ccccc1C(=O)NC(CCSC)C(=O)NCc1ccncc1 (stereo not given) | inactive: -4.28% |  |
| O=C1OC(Nc2nc(-c3ccc(F)cc3)cs2)c2ccccc21 (stereo not given) |  | inconclusive: 20.6 µM [activator, partial curve] |
| N#Cc1ccccc1S(=O)(=O)N1CCC(C(=O)Nc2cccc(C(=O)NC3CC3)c2)CC1 |  | inconclusive: 5.17 µM [falling, full curve, poor fit] |
| COCCNC(=S)NNC(=O)CSCc1ccc(Cl)cc1Cl |  | inconclusive: 29.1 µM [falling, single point] |
| CN1N=C(C(=O)N=c2sc3ccccc3n2C)CCC1=O |  | inconclusive: 8.2 µM [activator, partial curve] |
| COc1ccc(S(=O)(=O)N2CCCCCC2)cc1C(=O)N(C)Cc1c(F)cccc1Cl | inactive: -6.94% |  |
| CCN(C[C@H]1N[C@@](CC)(C(=O)OC)[C@H]2C(=O)N(Cc3ccccc3)C(=O)[C@@H]12)S(=O)(=O)c1ccc(C(F)(F)F)cc1 |  | inconclusive: 18.4 µM [falling, single point] |
| Cn1c(CCN2CCOCC2)nc2cc(NC(=O)COc3ccccc3)ccc21 |  | inconclusive: 6.51 µM [falling, partial curve, poor fit] |
| CN(C)/C=C/C(=O)c1ccc(Oc2ccccc2)cc1 |  | inconclusive: 16.4 µM [activator, partial curve] |
| O=C(Nc1ccc(Br)cc1)c1cccc(N2C(=O)C3C4CCC(C4)C3C2=O)c1 (stereo not given) |  | inconclusive: 23.1 µM [falling, single point] |
| CC(C)(CNC(=O)Cc1ccc(Br)cc1)N1CCOCC1 |  | inconclusive: 6.51 µM [activator, single point] |
| CC(=O)N1c2ccc(S(=O)(=O)N(C)Cc3ccccc3)cc2CC1C (stereo not given) |  | inconclusive: 20.6 µM [falling, partial curve, poor fit] |
| COc1ccc(NC(=O)CSc2nc3sc4c(c3c(=O)n2-c2ccc(OC)cc2)CCN(C)C4)cc1 |  | inconclusive: 29.1 µM [falling, single point] |
| COc1ccccc1Nc1nccc(N(C)C)c1C#N |  | inconclusive: 29.1 µM [activator, single point] |
| CCc1ccc(NC(=O)Cn2c(-c3cncs3)nc3ccccc32)cc1 | inactive: 5.26% |  |
| Cc1noc(C)c1COC(=O)c1ccccc1Sc1ccccc1C#N |  | active: 18.4 µM |
| CN(CC(=O)Nc1ccc(Cl)c(C(F)(F)F)c1)C(=O)c1cccnc1Sc1ccccc1 |  | inconclusive: 18.4 µM [falling, single point] |
| COc1cccc(CNS(=O)(=O)/C=C/c2ccc3c(c2)OCO3)c1 |  | inconclusive: 23.1 µM [falling, partial curve, poor fit] |
